Measurements published in the supplement of paper PMC10849652.
Some of the results follow. Residues, ends and D or L forms follow the SMILES beside them. *: point of attachment. Cbz = O=C(OCc1ccccc1)*

Chains of the proteins cited; added tags and fusions are not shown. Lines headed by an entry give the natural chain unless they say otherwise; changes in a name come on top.
UniProt P32856: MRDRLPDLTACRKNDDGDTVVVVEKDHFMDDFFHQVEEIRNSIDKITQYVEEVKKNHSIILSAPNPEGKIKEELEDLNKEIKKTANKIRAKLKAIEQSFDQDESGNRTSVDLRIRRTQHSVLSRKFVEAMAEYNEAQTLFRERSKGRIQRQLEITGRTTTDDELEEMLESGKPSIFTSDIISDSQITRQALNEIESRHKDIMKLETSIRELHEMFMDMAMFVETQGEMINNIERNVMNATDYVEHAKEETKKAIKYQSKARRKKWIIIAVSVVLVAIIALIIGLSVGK

Assays:
Assay in all cases: log2 fold change, soluble protein after heating vs DMSO (PISA); higher = thermal stabilisation; K562 cells, 10 uM, 30 min; active = over 0.2 and 3.5 SD of the protein, either way, in both replicates (recomputed)
erlotinib = compound: C#Cc1cccc(Nc2ncnc3cc(OCCOC)c(OCCOC)cc23)c1 [erlotinib]
How it was run: (§1)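 Quantification of soluble protein used TMTpro 16plex LC-MS/MS, with channel sums equalised. Samples were the supernatant after 21,000xg for 90 min of pooled aliquots from K562 cells (2×10^6 cells/mL) treated with 10 μM compound for 30 min, heated for 3 min over 48°C-58°C, and extracted in PBS with 0.5% NP-40 at 4°C. Values, from duplicates, describe thermal stability against control samples on a log2 fold-change scale.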

[1] = compound: C/C(=N\NC(=O)C1=CC(=CC=C1)S(=O)(=O)N2CCOCC2)/C3=C(C=CC(=C3)Cl)O
How it was run: as §1

[2] = compound: C1=CC(=C(C=C1Cl)C2=NC3=NC=CN=C3C(=N2)NC4=CC=NC=C4)F
How it was run: as §1

[3] = compound: C1=CC(=CC=C1C2=NC3=C(N2)C=C(C=C3)C(=O)N)OC4=CC=C(C=C4)Cl
How it was run: as §1

[4] = compound: C1=CC2=C(C=CC(=C2)/C=C\3/C(=O)NC(=NCC4=CC=CS4)S3)N=C1
How it was run: as §1

[5] = compound: C1=CC2=NC=CN=C2C=C1/C=C/3\C(=O)NC(=O)S3
How it was run: as §1

[6] = compound: C1=CC=C(C=C1)C2=NC(=C(N2)C3=CC=NC=C3)C4=CC(=C(C=C4)Cl)O
How it was run: as §1

[7] = compound: C1=CC=C(C=C1)[C@H](COC2=CC3=C(C=C2)NC(=O)N3)NC(=O)C4=CC=CN(C4=O)CC5=CC(=C(C=C5)F)F
How it was run: as §1

[8] = compound: C1=CC=C2C(=C1)C3=NNC4=CC=CC(=C43)C2=O
How it was run: as §1

[9] = compound: C1CCN(C1)C(=O)NC2=CC=CC(=C2)NC3=NC=C(C(=N3)NCCC4=CN=CN4)Br
How it was run: as §1

[10] = compound: C1CN(CCC1(CC2=CC=C(C=C2)Cl)N)C3=NC=NC4=C3C=CN4
How it was run: as §1

IRAK-1-4 Inhibitor I = compound: C1COCCN1CCN2C3=CC=CC=C3N=C2NC(=O)C4=CC(=CC=C4)[N+](=O)[O-] [IRAK-1-4 Inhibitor I]
How it was run: as §1

ibrutinib = compound: C=CC(=O)N1CCC[C@@H](n2nc(-c3ccc(Oc4ccccc4)cc3)c3c(N)ncnc32)C1 [ibrutinib]
How it was run: as §1

[11] = compound: CC(=O)c1cnc2ccc(-c3cc(Cl)c(O)c(Cl)c3)nc2c1N[C@H]1CC[C@H](CN(C)C)CC1
How it was run: as §1

ralimetinib = compound: CC(C)(C)Cn1c(N)nc2ccc(-c3[nH]c(C(C)(C)C)nc3-c3ccc(F)cc3)nc21 [ralimetinib]
How it was run: as §1

[12] = compound: CC(C)(O)CC(=O)NCCn1ccc2ncnc(Nc3ccc(Oc4cccc(C(F)(F)F)c4)c(Cl)c3)c21
How it was run: as §1

[13] = compound: CC(C)C1=C2N=C(C=C(N2N=C1)NCC3=CC=CC=C3)NCCCCCCN
How it was run: as §1

[14] = compound: CC(C)C[C@@H](C=O)NC(=O)[C@H](CC(C)C)NC(=O)[C@H](CC(C)C)NC(=O)OCc1ccccc1
How it was run: as §1

pinometostat = compound: CC(C)N(C[C@H]1O[C@@H](n2cnc3c(N)ncnc32)[C@H](O)[C@@H]1O)[C@H]1C[C@@H](CCc2nc3cc(C(C)(C)C)ccc3[nH]2)C1 [pinometostat]
How it was run: as §1

[15] = compound: CC1=C(C(CC(=O)N1)C2=CC=C(C=C2)C(F)(F)F)C(=O)NC3=C(C=C4C(=C3)C=NN4)F
How it was run: as §1

[16] = compound: CC1=C(C2=C(C=C1)C(=O)C3=CC=CC=C3N2CCCN)C
How it was run: as §1

[17] = compound: CC1=C(C=C(C=C1)NC(=O)C2=CC(=CC=C2)C(C)(C)C#N)NC3=CC4=C(C=C3)N=CN(C4=O)C
How it was run: as §1

[18] = compound: CC1=C(C=C(C=C1)NC(=O)C2=CC(=CC=C2)N(C)C)NC(=O)C3=CC=C(C=C3)O
How it was run: as §1

[19] = compound: CC1=C(SC2=C1C(=N[C@H](C3=NN=C(N32)C)CC(=O)N)C4=CC=C(C=C4)Cl)C
How it was run: as §1

[20] = compound: CC1=C2C(=CC=C1)N=C(N(C2=O)C3=CC=CC=C3C)CN4C=NC5=C(N=CN=C54)N
How it was run: as §1

[21] = compound: CC1=CC=C(C=C1)SC2=C3C=C(SC3=CN=C2)C(=O)N
How it was run: as §1

[22] = compound: CC1=NC(=CC=C1)C2=C(N=C(N2)C(C)(C)C)C3=CC4=NC=CN=C4C=C3
How it was run: as §1

Nexturastat A = compound: CCCCN(Cc1ccc(C(=O)NO)cc1)C(=O)Nc1ccccc1 [Nexturastat A]
How it was run: as §1

vemurafenib = compound: CCCS(=O)(=O)Nc1ccc(F)c(C(=O)c2c[nH]c3ncc(-c4ccc(Cl)cc4)cc23)c1F [vemurafenib]
How it was run: as §1

[23] = compound: CCCS(=O)(=O)Nc1ccc(F)c(C(=O)c2c[nH]c3ncc(Cl)cc23)c1F
How it was run: as §1

[24] = compound: CCCc1cc(C)[nH]c(=O)c1CNC(=O)c1cc(-c2ccnc(N3CCN(C)CC3)c2)cc2c1cnn2C(C)C
How it was run: as §1

givinostat = compound: CCN(CC)Cc1ccc2cc(COC(=O)Nc3ccc(C(=O)NO)cc3)ccc2c1 [givinostat]
How it was run: as §1

barasertib = compound: CCN(CCCOc1ccc2c(Nc3cc(CC(=O)Nc4cccc(F)c4)[nH]n3)ncnc2c1)CCOP(=O)(O)O [barasertib]
How it was run: as §1

[25] = compound: CC[C@@H]1C(=O)N(C)c2cnc(Nc3ccc(C(=O)NC4CCN(C)CC4)cc3OC)nc2N1C1CCCC1
How it was run: as §1

volasertib = compound: CC[C@@H]1C(=O)N(C)c2cnc(Nc3ccc(C(=O)N[C@H]4CC[C@H](N5CCN(CC6CC6)CC5)CC4)cc3OC)nc2N1C(C)C [volasertib]
How it was run: as §1

[26] = compound: CC[C@H](C)N1C=C(C2=C(C=C(C=C21)C3=CN=C(C=C3)N4CCNCC4)C(=O)NCC5=C(C=C(NC5=O)C)C)C
How it was run: as §1

epoxomicin = compound: CC[C@H](C)[C@@H](C(=O)N[C@@H]([C@@H](C)O)C(=O)N[C@@H](CC(C)C)C(=O)[C@]1(CO1)C)NC(=O)[C@H]([C@@H](C)CC)N(C)C(=O)C [epoxomicin]
How it was run: as §1

[27] = compound: CCn1c(C(=O)N(C2CC2)C2CC2)cc2c3c(ncn3C)c(Nc3cc(C)n(C)n3)nc21
How it was run: as §1

[28] = compound: CCn1cc(-c2ccnc3[nH]c(-c4cccc(CN(C)C)c4)cc23)c(-c2ccc(NC(=O)N(C)C)cc2)n1
How it was run: as §1

[29] = compound: CN(C)CC(=O)Nc1ccc2[nH]c(=O)c3ccccc3c2c1
How it was run: as §1

rosiglitazone = compound: CN(CCOC1=CC=C(C=C1)C[C@H]2C(=O)NC(=O)S2)C3=CC=CC=N3 (racemic) [rosiglitazone]
How it was run: as §1

[30] = compound: CN1C2=C(C3=C1C(=O)N(N=C3)CC4=CC(=CC=C4)N)SC(=C2)S(=O)C
How it was run: as §1

[31] = compound: CN1CCC(CNc2ccc3ncc(-c4cccc(OC(F)(F)F)c4)n3n2)CC1
How it was run: as §1

saracatinib = compound: CN1CCN(CCOc2cc(OC3CCOCC3)c3c(Nc4c(Cl)ccc5c4OCO5)ncnc3c2)CC1 [saracatinib]
How it was run: as §1

sotrastaurin = compound: CN1CCN(c2nc(C3=C(c4c[nH]c5ccccc45)C(=O)NC3=O)c3ccccc3n2)CC1 [sotrastaurin]
How it was run: as §1

alvocidib = compound: CN1CC[C@H](c2c(O)cc(O)c3c(=O)cc(-c4ccccc4Cl)oc23)[C@H](O)C1 [alvocidib]
How it was run: as §1

Tubastatin A = compound: CN1CCc2c(c3ccccc3n2Cc2ccc(C(=O)NO)cc2)C1 [Tubastatin A]
How it was run: as §1

[32] = compound: CNC(=O)C1=CC=CC=C1NC2=NC(=NC=C2Cl)NC3=C(C=C(C=C3)N4CCOCC4)OC
How it was run: as §1

Measured: log2 fold change

STX2 (UniProt P32856)
inactive: erlotinib 0.141 | [1] -0.009 | [2] -0.006 | [3] 0.022 | [4] 0.059 | [5] -0.041 | [6] 0.25 | [7] -0.025 | [8] -0.046 | [9] -0.043 | [10] 0.033 | IRAK-1-4 Inhibitor I 0.079 | ibrutinib 0 | [11] -0.087 | ralimetinib 0.205 | [12] 0 | [13] -0.014 | [14] -0.183 | pinometostat -0.056 | [15] -0.072 | [16] 0.015 | [17] 0.019 | [18] -0.11 | [19] 0.076 | [20] 0.002 | [21] -0.118 | [22] -0.026 | Nexturastat A 0.134 | vemurafenib -0.026 | [23] -0.055 | [24] 0.051 | givinostat 0.015 | barasertib 0.063 | [25] 0.046 | volasertib 0.054 | [26] 0.042 | epoxomicin -0.008 | [27] -0.092 | [28] -0.042 | [29] 0.015 | rosiglitazone -0.008 | [30] 0.131 | [31] 0.14 | saracatinib 0.217 | sotrastaurin -0.047 | alvocidib 0.037 | Tubastatin A -0.011 | [32] 0.054
